Measured values: patent US7220875B2, “Amino acid derived prodrugs of propofol, compositions and uses thereof” (priority 2003, dated 2007)
Some of these results come from one statement about several compounds together. At least one compound was matched to its structure with a doubt left.

Test system: PEPT1
Test: Electrogenic transport in PEPT1-expressing Xenopus oocytes
Assay type: cell-based, rat and human
Settings: tested at 3 mM on oocytes expressing PEPT1; normalized to glycyl-sarcosine (1 mM)

Molecule	PEPT-specific currents significantly above background
CC(C)c1cccc(C(C)C)c1OC(=O)C[C@H](N)C(=O)N1CCC[C@H]1C(=O)O [Compound 136, H-Asp(OPropofol)-Pro-OH]	at least 2 % Of Imax for Gly-Sar
CC(C)c1cccc(C(C)C)c1OC(=O)OC[C@H](NC(=O)[C@H](C)N)C(=O)O [Compound 161, H-Ala-Ser(β-OC(O)OPropofol)-OH]	at least 2 % Of Imax for Gly-Sar
CC(C)c1cccc(C(C)C)c1OC(=O)C[C@H](NC(=O)[C@H](C)N)C(=O)O [Compound 107, H-Ala-Asp(OPropofol)-OH]	at least 2 % Of Imax for Gly-Sar
H-Asp-Asp(OCH2OPropofol)-OH [Compound 220]	at least 2 % Of Imax for Gly-Sar
H-Arg-Asp(OPropofol)-OH [Compound 116]	at least 2 % Of Imax for Gly-Sar
H-Ala-Thr(β-OC(O)OPropofol)-OH [Compound 210]	at least 2 % Of Imax for Gly-Sar
CC(C)c1cccc(C(C)C)c1OC(=O)CC[C@H](NC(=O)[C@@H](N)CC(N)=O)C(=O)O [Compound 124, H-Asn-Glu(OPropofol)-OH]	at least 2 % Of Imax for Gly-Sar
H-Asn-Asp(OPropofol)-OH [Compound 115]	at least 2 % Of Imax for Gly-Sar
CC(C)c1cccc(C(C)C)c1OC(=O)CC[C@H](N)C(=O)NCC(=O)O [Compound 143, H-Glu(OPropofol)-Gly-OH]	at least 2 % Of Imax for Gly-Sar
H-Ser-Thr(β-OC(O)OPropofol)-OH [Compound 213]	at least 2 % Of Imax for Gly-Sar
CC(C)c1cccc(C(C)C)c1OCOC(=O)[C@@H](N)C(C)C [Compound 241, H-Val-OCH2OPropofol]	at least 2 % Of Imax for Gly-Sar
CC(C)c1cccc(C(C)C)c1OCOC(=O)C(C)(C)N [Compound 243, H-Aib-OCH2OPropofol]	at least 2 % Of Imax for Gly-Sar

Test system: not listed separately
Test: Uptake of propofol following oral administration of prodrugs to rats
Assay type: in vivo, Sprague-Dawley rats
Settings: oral gavage, 25 mg-equivalents of propofol per kg in PEG400, vs intravenous propofol, dose-normalized

Molecule	oral bioavailability (F) as propofol
CC(C)c1cccc(C(C)C)c1OC(=O)C[C@H](NC(=O)[C@H](C)N)C(=O)O [Compound 107, H-Ala-Asp(OPropofol)-OH]	> 50%
CC(C)c1cccc(C(C)C)c1OC(=O)CC[C@H](NC(=O)[C@@H](N)CC(N)=O)C(=O)O [Compound 124, H-Asn-Glu(OPropofol)-OH]	> 50%
CC(C)c1cccc(C(C)C)c1OC(=O)C[C@H](NC(=O)[C@@H](N)Cc1ccc(O)cc1)C(=O)O [Compound 122, H-Tyr-Asp(OPropofol)-OH]	> 50%

Test system: not listed separately
Test: Uptake of propofol following oral administration of prodrugs to monkeys
Assay type: in vivo, Cynomologous (Macaca fascicularis) monkeys
Settings: oral gavage, 25 mg-equivalents of propofol per kg in water or PEG400, vs intravenous propofol, dose-normalized

Molecule	oral bioavailability as propofol
CC(C)c1cccc(C(C)C)c1OC(=O)[C@H](CC(N)=O)NC(=O)[C@@H](N)CO [Compound 174, H-Ser-Asn-OPropofol]	> 10%
CC(C)c1cccc(C(C)C)c1OC(=O)CC[C@H](N)C(=O)N[C@@H](CCCCN)C(=O)O [Compound 146, H-Glu(OPropofol)-Lys-OH]	> 40%
H-Ser-Thr(β-OC(O)OPropofol)-OH [Compound 213]	> 10%
CC(C)c1cccc(C(C)C)c1OC(=O)CC[C@H](N)C(=O)N[C@@H](CC(=O)O)C(=O)O [Compound 140, H-Glu(OPropofol)-Asp-OH]	> 40%
